Where two headings read alike, the source gives them in different places. Results are given in words; binding and its absence hold for the method and conditions named. In cells and extracts the contact can be indirect. A yes stands for co-enrichment or nearness to the bait. Other partners may have been found. For part of these data: Where a sequence is shown, tags or fusion partners need not be part of it.
T1: Dcp1-myc (S. cerevisiae) (UniProt Q12517)
T1 sequence: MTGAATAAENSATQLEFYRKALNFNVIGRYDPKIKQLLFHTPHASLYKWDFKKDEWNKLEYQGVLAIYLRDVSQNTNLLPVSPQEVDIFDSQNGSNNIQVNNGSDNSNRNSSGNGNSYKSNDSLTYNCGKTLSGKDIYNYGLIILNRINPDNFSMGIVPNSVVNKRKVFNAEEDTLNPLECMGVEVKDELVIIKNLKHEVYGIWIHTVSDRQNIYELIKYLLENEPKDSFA

Protein sequences, listed by entry. Tags and fused reporters are not part of them.
UniProt P53297: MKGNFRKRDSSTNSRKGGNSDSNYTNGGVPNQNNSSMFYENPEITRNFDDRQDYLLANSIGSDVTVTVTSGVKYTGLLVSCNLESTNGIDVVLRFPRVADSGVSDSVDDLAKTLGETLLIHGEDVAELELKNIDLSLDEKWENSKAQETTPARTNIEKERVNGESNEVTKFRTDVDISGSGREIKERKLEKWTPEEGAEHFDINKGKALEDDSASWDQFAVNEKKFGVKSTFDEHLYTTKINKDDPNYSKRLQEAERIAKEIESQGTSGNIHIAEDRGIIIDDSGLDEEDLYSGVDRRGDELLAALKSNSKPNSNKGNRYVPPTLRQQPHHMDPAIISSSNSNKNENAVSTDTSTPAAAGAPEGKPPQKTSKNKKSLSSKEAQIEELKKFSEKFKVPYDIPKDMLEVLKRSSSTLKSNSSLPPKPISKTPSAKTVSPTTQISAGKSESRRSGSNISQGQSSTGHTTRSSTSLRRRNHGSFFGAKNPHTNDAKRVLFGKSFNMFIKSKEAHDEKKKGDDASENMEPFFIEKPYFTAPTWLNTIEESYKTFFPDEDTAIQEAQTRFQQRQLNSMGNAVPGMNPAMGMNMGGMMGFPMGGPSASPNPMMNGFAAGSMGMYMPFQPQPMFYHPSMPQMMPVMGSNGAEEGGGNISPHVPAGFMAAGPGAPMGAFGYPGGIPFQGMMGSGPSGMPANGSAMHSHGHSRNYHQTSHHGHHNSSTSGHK
UniProt Q04373: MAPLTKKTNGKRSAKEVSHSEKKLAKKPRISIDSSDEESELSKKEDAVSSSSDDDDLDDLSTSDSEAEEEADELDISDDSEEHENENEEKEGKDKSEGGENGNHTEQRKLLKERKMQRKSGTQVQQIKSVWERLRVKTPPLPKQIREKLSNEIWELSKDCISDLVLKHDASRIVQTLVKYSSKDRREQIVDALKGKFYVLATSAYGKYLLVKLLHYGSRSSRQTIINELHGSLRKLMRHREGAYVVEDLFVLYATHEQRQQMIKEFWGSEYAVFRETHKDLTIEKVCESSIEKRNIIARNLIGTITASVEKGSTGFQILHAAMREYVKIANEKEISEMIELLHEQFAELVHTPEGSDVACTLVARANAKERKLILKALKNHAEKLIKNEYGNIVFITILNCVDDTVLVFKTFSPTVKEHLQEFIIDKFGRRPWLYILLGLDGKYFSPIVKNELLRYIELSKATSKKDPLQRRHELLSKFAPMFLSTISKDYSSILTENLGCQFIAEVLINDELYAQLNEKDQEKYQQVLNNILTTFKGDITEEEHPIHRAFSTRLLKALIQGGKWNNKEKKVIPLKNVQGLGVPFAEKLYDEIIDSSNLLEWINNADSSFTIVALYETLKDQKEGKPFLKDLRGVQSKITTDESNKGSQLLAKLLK
UniProt P06780: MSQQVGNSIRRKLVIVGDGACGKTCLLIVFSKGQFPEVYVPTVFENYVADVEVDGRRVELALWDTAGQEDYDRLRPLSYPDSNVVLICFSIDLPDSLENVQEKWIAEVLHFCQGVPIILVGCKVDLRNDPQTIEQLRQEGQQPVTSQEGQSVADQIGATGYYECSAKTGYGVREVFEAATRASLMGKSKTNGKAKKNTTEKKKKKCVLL
UniProt P40217: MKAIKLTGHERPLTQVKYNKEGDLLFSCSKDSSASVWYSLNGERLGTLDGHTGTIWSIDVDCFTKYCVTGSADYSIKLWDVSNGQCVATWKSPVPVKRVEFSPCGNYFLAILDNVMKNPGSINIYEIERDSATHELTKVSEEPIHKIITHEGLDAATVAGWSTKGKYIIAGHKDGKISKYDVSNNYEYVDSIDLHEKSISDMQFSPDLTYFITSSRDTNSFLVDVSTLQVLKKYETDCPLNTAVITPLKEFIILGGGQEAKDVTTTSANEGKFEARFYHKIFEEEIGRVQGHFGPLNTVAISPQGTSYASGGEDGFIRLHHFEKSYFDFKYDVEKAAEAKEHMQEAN
UniProt P08518: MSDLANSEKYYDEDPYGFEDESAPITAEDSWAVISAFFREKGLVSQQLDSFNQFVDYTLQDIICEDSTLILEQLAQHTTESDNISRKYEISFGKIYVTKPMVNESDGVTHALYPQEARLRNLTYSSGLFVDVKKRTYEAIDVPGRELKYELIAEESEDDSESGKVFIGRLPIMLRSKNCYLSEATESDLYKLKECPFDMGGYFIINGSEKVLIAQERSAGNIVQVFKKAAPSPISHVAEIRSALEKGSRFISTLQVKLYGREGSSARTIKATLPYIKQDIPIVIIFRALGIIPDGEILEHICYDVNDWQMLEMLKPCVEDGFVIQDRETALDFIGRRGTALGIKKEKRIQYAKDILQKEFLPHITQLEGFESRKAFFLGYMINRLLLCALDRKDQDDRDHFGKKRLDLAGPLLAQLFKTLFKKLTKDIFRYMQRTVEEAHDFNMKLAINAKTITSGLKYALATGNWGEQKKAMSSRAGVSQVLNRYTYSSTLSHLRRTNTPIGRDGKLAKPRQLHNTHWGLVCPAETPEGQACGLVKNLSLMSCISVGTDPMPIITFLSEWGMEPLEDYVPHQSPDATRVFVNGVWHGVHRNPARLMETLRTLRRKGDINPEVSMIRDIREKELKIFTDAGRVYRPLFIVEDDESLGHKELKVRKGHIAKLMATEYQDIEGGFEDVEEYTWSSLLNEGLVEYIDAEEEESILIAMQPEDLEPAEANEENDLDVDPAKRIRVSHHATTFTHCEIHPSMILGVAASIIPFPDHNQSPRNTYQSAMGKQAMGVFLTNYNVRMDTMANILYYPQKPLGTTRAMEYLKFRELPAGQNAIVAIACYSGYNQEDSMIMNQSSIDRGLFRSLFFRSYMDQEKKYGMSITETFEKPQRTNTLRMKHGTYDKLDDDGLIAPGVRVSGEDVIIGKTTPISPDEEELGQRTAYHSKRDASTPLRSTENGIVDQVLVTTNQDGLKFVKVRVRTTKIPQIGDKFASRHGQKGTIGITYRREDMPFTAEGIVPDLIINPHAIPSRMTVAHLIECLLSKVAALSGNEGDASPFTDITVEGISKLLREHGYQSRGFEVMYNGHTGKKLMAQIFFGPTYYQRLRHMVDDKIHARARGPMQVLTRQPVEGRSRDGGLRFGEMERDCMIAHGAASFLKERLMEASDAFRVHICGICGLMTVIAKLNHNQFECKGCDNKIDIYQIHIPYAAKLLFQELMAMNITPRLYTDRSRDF
UniProt P28007: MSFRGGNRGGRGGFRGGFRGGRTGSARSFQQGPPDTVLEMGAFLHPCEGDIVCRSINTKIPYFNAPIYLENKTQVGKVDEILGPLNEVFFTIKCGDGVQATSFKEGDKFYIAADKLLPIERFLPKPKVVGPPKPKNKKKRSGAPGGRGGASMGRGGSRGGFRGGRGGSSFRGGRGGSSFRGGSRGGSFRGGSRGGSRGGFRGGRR
UniProt P23292: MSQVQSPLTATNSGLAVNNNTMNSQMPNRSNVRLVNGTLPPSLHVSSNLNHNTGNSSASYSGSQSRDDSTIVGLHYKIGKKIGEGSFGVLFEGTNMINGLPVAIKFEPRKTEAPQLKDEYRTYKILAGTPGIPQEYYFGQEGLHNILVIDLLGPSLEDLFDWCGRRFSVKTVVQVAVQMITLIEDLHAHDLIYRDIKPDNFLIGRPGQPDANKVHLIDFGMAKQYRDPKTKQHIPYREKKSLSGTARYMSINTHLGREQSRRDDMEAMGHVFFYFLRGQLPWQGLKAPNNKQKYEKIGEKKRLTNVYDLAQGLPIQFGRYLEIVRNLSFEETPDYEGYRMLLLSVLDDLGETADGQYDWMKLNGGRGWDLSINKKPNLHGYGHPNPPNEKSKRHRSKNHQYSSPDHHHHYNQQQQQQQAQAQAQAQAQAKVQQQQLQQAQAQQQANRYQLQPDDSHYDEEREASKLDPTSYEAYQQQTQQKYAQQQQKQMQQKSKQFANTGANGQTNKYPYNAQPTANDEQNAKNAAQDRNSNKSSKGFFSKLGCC
UniProt P15646: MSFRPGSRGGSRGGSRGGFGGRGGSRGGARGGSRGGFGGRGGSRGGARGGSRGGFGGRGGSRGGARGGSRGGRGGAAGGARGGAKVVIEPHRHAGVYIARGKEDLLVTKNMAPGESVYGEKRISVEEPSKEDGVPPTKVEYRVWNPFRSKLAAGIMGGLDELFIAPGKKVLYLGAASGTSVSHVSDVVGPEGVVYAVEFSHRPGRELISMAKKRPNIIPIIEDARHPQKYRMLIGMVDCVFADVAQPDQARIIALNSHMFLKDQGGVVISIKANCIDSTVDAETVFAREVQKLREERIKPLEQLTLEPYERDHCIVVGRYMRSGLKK
UniProt P06634: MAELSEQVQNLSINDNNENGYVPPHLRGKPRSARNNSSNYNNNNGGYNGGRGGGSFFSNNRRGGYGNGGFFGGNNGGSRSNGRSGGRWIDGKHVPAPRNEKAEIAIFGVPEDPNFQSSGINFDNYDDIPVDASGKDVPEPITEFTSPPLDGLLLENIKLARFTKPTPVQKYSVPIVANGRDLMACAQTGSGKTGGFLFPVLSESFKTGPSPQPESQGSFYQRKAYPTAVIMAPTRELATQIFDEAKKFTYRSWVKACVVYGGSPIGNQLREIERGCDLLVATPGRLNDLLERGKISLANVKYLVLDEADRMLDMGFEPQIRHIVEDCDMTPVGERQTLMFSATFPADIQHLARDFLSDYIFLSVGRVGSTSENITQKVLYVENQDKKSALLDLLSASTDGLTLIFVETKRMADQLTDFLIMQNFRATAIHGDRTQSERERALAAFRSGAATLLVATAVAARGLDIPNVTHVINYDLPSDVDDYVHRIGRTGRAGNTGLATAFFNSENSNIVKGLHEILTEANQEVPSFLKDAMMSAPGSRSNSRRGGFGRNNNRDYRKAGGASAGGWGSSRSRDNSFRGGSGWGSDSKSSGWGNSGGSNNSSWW
UniProt P05030: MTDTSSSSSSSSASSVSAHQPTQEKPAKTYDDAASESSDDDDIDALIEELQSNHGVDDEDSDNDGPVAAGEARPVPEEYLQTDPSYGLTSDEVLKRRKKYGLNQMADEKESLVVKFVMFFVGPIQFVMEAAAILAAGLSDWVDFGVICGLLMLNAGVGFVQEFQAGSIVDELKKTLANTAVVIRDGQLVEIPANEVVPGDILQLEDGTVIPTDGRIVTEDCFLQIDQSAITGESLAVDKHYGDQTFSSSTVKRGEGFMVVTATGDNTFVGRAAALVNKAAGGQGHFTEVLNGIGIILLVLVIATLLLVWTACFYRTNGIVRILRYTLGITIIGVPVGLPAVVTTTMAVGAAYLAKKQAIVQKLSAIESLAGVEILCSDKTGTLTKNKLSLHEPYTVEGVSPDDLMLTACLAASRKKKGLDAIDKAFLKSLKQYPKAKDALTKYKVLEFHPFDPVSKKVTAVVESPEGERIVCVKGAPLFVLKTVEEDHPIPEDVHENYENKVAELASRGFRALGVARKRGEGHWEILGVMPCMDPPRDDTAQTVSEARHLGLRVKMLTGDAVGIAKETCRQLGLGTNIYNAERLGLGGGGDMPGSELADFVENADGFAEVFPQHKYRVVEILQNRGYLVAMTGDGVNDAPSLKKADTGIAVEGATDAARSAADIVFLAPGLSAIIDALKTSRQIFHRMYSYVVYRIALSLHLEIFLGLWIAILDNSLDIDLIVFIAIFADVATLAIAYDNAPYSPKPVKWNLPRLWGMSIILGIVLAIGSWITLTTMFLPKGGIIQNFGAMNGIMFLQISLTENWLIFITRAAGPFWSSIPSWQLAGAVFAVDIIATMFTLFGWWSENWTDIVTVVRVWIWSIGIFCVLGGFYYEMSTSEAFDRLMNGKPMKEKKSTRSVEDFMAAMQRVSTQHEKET
UniProt P30619: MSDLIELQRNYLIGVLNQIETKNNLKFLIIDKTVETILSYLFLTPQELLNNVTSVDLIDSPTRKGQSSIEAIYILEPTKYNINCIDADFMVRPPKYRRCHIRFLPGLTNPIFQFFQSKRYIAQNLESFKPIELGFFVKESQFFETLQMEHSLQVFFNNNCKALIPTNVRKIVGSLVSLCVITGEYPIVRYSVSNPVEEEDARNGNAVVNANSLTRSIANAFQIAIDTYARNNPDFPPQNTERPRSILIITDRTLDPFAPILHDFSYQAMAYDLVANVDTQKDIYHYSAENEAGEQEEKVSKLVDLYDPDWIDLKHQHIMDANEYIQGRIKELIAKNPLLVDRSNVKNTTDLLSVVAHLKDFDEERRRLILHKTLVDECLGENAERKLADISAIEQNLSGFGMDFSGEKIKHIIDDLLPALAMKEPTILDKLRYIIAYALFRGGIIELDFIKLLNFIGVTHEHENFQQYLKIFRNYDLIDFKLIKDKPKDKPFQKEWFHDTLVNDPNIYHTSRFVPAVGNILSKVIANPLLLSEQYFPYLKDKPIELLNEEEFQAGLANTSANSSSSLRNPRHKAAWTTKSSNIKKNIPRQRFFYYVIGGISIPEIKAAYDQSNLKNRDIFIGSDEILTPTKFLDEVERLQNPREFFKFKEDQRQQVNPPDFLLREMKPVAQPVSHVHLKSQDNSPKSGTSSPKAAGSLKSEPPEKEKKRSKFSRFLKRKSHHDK

T2: Dcp1-myc (S. cerevisiae), Q12517
T2 chain: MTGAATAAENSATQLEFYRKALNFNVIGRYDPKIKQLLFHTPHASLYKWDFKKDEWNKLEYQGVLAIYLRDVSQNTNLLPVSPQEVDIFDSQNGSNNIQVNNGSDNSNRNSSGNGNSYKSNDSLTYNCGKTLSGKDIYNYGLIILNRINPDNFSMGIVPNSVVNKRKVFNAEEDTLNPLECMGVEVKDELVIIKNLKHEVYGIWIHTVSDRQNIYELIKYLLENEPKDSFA


Experiments:
Pbp1-myc (S. cerevisiae) [1] = biological target: Pbp1-myc (S. cerevisiae) (UniProt P53297); experiment: affinity purification with mass spectrometry; cells unstressed or glucose-depleted (10 min for Dcp1-myc, 60 min for Pbp1-myc), cross-linked with 0.8% formaldehyde; 20,000 g pellet of the lysate in Blob100 buffer (20 mM Tris-HCl pH 8, 100 mM NaCl, 1 mM MgCl2, 0.5% NP40) on anti-c-Myc magnetic beads, eluted with Myc peptide; label-free LC-MS/MS; hits are the proteins that cluster (Mfuzz) with the tagged bait across IP, pellet, supernatant, total and unbound fractions
Dcp1-myc (S. cerevisiae) [2] = biological target: T1, Dcp1-myc (S. cerevisiae); experiment: as above
[3] = biological target: T2, Dcp1-myc (S. cerevisiae), Q12517; experiment: affinity purification with mass spectrometry; cells unstressed or glucose-depleted (10 min for Dcp1-myc, 60 min for Pbp1-myc), cross-linked with 0.8% formaldehyde; 20,000 g pellet of the lysate in Blob100 buffer (20 mM Tris-HCl pH 8, 100 mM NaCl, 1 mM MgCl2, 0.5% NP40) on anti-c-Myc magnetic beads, eluted with Myc peptide; label-free LC-MS/MS; hits are the proteins that cluster (Mfuzz) with the tagged bait across …; details: remark: other sources report otherwise
Pbp1-myc (S. cerevisiae) [4] = biological target: Pbp1-myc (S. cerevisiae) (UniProt P53297); experiment: affinity purification with mass spectrometry; cells unstressed or glucose-depleted (10 min for Dcp1-myc, 60 min for Pbp1-myc), cross-linked with 0.8% formaldehyde; 20,000 g pellet of the lysate in Blob100 buffer (20 mM Tris-HCl pH 8, 100 mM NaCl, 1 mM MgCl2, 0.5% NP40) on anti-c-Myc magnetic beads, eluted with Myc peptide; label-free LC-MS/MS; hits are the proteins that cluster (Mfuzz) with the tagged bait across IP, pellet, supernatant, total and unbound fractions; remark: listed apart in the source
Dcp1-myc (S. cerevisiae) [5] = biological target: T1, Dcp1-myc (S. cerevisiae); experiment: as above; remark: listed apart in the source

binding (Pbp1-myc (S. cerevisiae) [1]) | Molecule | other results
binds | Puf6 (from UniProt Q04373 1-656) | –
binds | Snq2 (from UniProt P32568 1-1501) | binding (Dcp1-myc (S. cerevisiae) [2]): binds
binds | Sup35 (from UniProt P05453 1-685) | –
binds | Rho1 (from UniProt P06780 1-209) | –
binds | eIF3i (from UniProt P40217 1-347) | –
– | Xrn1 (from UniProt P22147 1-1528) | binding (Dcp1-myc (S. cerevisiae) [2]): binds
binds | Rpb2 (from UniProt P08518 1-1224) | –
binds | Gar1 (from UniProt P28007 1-205) | –
binds | Pab1 (from UniProt P04147 1-577) | binding (Dcp1-myc (S. cerevisiae) [2]): binds
– | Pbp1 (from UniProt P53297 1-722) | binding (Dcp1-myc (S. cerevisiae) [2]): binds
binds | Yck2 (from UniProt P23292 1-546) | binding (Dcp1-myc (S. cerevisiae) [2]): binds
binds | Nop1 (from UniProt P15646 1-327) | –
binds | Ded1 (from UniProt P06634 1-604) | –
binds | Pma1 (from UniProt P05030 1-918) | –
binds | Pma2 (from UniProt P19657 1-947) | binding (Dcp1-myc (S. cerevisiae) [2]): binds
– | Pat1, P25644 1-796 (protein) MSFFGLENSGNARDGPLDFEESYKGYGEHELEENDYLNDETFGDNVQVGTDFDFGNPHSSGSSGNAIGGNGVGATARSYVAATAEGISGPRTDGTAAAGPLDLKPMESLWSTAPPPAMAPSPQSTMAPAPAPQQMAPLQPILSMQDLERQQRQMQQQFMNFHAMGHPQGLPQGPPQQQFPMQPASGQPGPSQFAPPPPPPGVNVNMNQMPMGPVQVPVQASPSPIGMSNTPSPGPVVGATKMPLQSGRRSKRDLSPEEQRRLQIRHAKVEKILKYSGLMTPRDKDFITRYQLSQIVTEDPYNEDFYFQVYKIIQRGGITSESNKGLIARAYLEHSGHRLGGRYKRTDIALQRMQSQVEKAVTVAKERPSKLKDQQAAAGNSSQDNKQANTVLGKISSTLNSKNPRRQLQIPRQQPSDPDALKDVTDSLTNVDLASSGSSSTGSSAAAVASKQRRRSSYAFNNGNGATNLNKSGGKKFILELIETVYEEILDLEANLRNGQQTDSTAMWEALHIDDSSYDVNPFISMLSFDKGIKIMPRIFNFLDKQQKLKILQKIFNELSHLQIIILSSYKTTPKPTLTQLKKVDLFQMIILKIIVSFLSNNSNFIEIMGLLLQLIRNNNVSFLTTSKIGLNLITILISRAALIKQDSSRSNILSSPEISTWNEIYDKLFTSLESKIQLIFPPREYNDHIMRLQNDKFMDEAYIWQFLASLALSGKLNHQRIIIDEVRDEIFATINEAETLQKKEKELSVLPQRSQELDTELKSIIYNKEKLYQDLNLFLNVMGLVYRDGEISELK | binding [3]: binds
– | Scd6, P45978 1-349 (protein) MSQYIGKTISLISVTDNRYVGLLEDIDSEKGTVTLKEVRCFGTEGRKNWGPEEIYPNPTVYNSVKFNGSEVKDLSILDANINDIQPVVPQMMPPASQFPPQQAQSPPQAQAQAHVQTNPQVPKPESNVPAAVAGYGVYTPTSTETATASMNDKSTPQDTNVNSQSRERGKNGENEPKYQRNKNRSSNRPPQSNRNFKVDIPNEDFDFQSNNAKFTKGDSTDVEKEKELESAVHKQDESDEQFYNKKSSFFDTISTSTETNTNMRWQEEKMLNVDTFGQASARPRFHSRGLGRGRGNYRGNRGNRGRGGQRGNYQNRNNYQNDSGAYQNQNDSYSRPANQFSQPPSNVEF | binding [3]: binds
– | Chs5 (protein, UniProt Q12114 1-671) MSSVDVLLTVGKLDASLALLTTQDHHVIEFPTVLLPENVKAGSIIKMQVSQNLEEEKKQRNHFKSIQAKILEKYGTHKPESPVLKIVNVTQTSCVLAWDPLKLGSAKLKSLILYRKGIRSMVIPNPFKVTTTKISGLSVDTPYEFQLKLITTSGTLWSEKVILRTHKMTDMSGITVCLGPLDPLKEISDLQISQCLSHIGARPLQRHVAIDTTHFVCNDLDNEESNEELIRAKHNNIPIVRPEWVRACEVEKRIVGVRGFYLDADQSILKNYTFPPVNEEELSYSKENEPVAEVADENKMPEDTTDVEQVASPNDNESNPSEAKEQGEKSGHETAPVSPVEDPLHASTALENETTIETVNPSVRSLKSEPVGTPNIEENKADSSAEAVVEEPNEAVAESSPNEEATGQKSEDTDTHSNEQADNGFVQTEEVAENNITTESAGENNEPADDAAMEFGRPEAEIETPEVNESIEDANEPAEDSNEPVEDSNKPVKDSNKPVEDSNKPVEDSNKPVEDSNKPVEDANEPVEDTSEPVEDAGEPVQETNEFTTDIASPRHQEEDIELEAEPKDATESVAVEPSNEDVKPEEKGSEAEDDINNVSKEAASGESTTHQKTEASASLESSAVTEEQETTEAEVNTDDVLSTKEAKKNTGNSNSNKKKNKKNKKKGKKK | binding (Pbp1-myc (S. cerevisiae) [4]): binds; binding (Dcp1-myc (S. cerevisiae) [5]): binds
– | Cdc12 (protein, UniProt P32468 1-407) MSAATATAAPVPPPVGISNLPNQRYKIVNEEGGTFTVMLCGESGLGKTTFINTLFQTVLKRADGQQHRQEPIRKTVEIDITRALLEEKHFELRVNVIDTPGFGDNVNNNKAWQPLVDFIDDQHDSYMRQEQQPYRTKKFDLRVHAVLYFIRPTGHGLKPIDIETMKRLSTRANLIPVIAKADTLTAQELQQFKSRIRQVIEAQEIRIFTPPLDADSKEDAKSGSNPDSAAVEHARQLIEAMPFAIVGSEKKFDNGQGTQVVARKYPWGLVEIENDSHCDFRKLRALLLRTYLLDLISTTQEMHYETYRRLRLEGHENTGEGNEDFTLPAIAPARKLSHNPRYKEEENALKKYFTDQVKAEEQRFRQWEQNIVNERIRLNGDLEEIQGKVKKLEEQVKSLQVKKSHLK | binding (Pbp1-myc (S. cerevisiae) [4]): binds; binding (Dcp1-myc (S. cerevisiae) [5]): binds
– | Lsm1, P47017 1-172 (protein) MSANSKDRNQSNQDAKRQQQNFPKKISEGEADLYLDQYNFTTTAAIVSSVDRKIFVLLRDGRMLFGVLRTFDQYANLILQDCVERIYFSEENKYAEEDRGIFMIRGENVVMLGEVDIDKEDQPLEAMERIPFKEAWLTKQKNDEKRFKEETHKGKKMARHGIVYDFHKSDMY | binding [3]: binds

Molecule | binding (Pbp1-myc (S. cerevisiae) [1]) | other results
Sec1 (from UniProt P30619 1-724) | binds | –

— publication PMC8782181
